Laboratory results as given in publication PMC10171860.
No constants are given. Whether binding was seen depends on the method and setting. Binding seen in cells or lysates may run through a third protein. Binding can be weak; no strength is given. Values belong to the binder of their own block, whether it stands above or below them.

Target: NFκB1 (mouse (endogenous in MC3T3-E1))
Assay: co-IP; IP with NFκB1 antibody from MC3T3-E1 protein extracts, IgG as negative control; blots for RelB, NPAS1 and p50

binding: no binding
B1: NPAS1 (protein, UniProt P97459 1-594)
chain: MATPYPRSGGRGEVKCGGGRGAGVPWDFLPGLMVKAPPGPCLQAQRKEKSRNAARWRRGKENLEFFELAKLLPLPGAISSQLDKASIVRLSVTYLRLRRFAALGAPPWGLRAVGPPAGLAPGRRGPVALVSEVFEQHLGGHILQSLDGFVFALNQEGKFLYISETVSIYLGLSQVELTGSSVFDYIHPGDHSEVLEQLGLRAASIGPPTPPSVSSSSSSSSSSLVDTPEIEASPTEASPAFRAQERSFFVRMKSTLTKRGLNVKASGYKVIHVTGRLRARALGLVALGHTLPPAPLAELPLHGHMIVFRLSLGLTILACESRVSDHMDMGPSELVGRSCYQFVHGQDATRIRQSHLDLLDKGQVVTGYYRWLQRAGGFVWLQSVATVAGNGKSTGEHHVLWVSHVLSNAEGSQTPLDAFQLPAIVSQEEPSRPGPEPTEEEPPVDGKQAVPADQDKDKDPQARGKRIKVEASPKEARGSEDSGEEELSDPPAPPRPEFTSVIRAGALKHDPVLPWGLTTPGDPSPALLHAGFLPPVVRGLCTPGTIRYGPAELSLMYPHLHRLGAGPSLPEAFYPTLGLPYPGPTGTRVQRKGD

binding: binds
B2: RelB (protein, UniProt Q04863 1-558)
chain: MPSRRAARESAPELGALGSSDLSSLSLTVSRTTDELEIIDEYIKENGFGLDGTQLSEMPRLVPRGPASLSSVTLGPAAPPPPATPSWSCTLGRLVSPGPCPRPYLVITEQPKQRGMRFRYECEGRSAGSILGESSTEASKTLPAIELRDCGGLREVEVTACLVWKDWPHRVHPHSLVGKDCTDGVCRVRLRPHVSPRHSFNNLGIQCVRKKEIEAAIERKIQLGIDPYNAGSLKNHQEVDMNVVRICFQASYRDQQGHLHRMDPILSEPVYDKKSTNTSELRICRINKESGPCTGGEELYLLCDKVQKEDISVVFSTASWEGRADFSQADVHRQIAIVFKTPPYEDLEISEPVTVNVFLQRLTDGVCSEPLPFTYLPRDHDSYGVDKKRKRGLPDVLGELSSSDPHGIESKRRKKKPVFLDHFLPGHSSGLFLPPSALQPADSDFFPASISLPGLEPPGGPDLLDDGFAYDPSAPTLFTMLDLLPPAPPLASAVVGSGGAGATVVESSGPEPLSLDSFAAPGPGDVGTASLVGSNMFPNQYREAAFGGGLLSPGPEAT
